# Measurements from PubChem BioAssay AID652175 (National Center for Advancing Translational Sciences (NCATS), 2013).
# Values joined by “and” are separate entries in the source; they are usually repeats but may differ in a detail not shown here. Identical values can stand only once. The shares of active, inactive and inconclusive entries below differ from those in the screen. Potencies beside an inconclusive call are fits to weak or partial responses and may not hold up. Active and inactive are the calls of the source. Calls come from the whole dose curve; as a rule, active = well fitted inhibition curve with a large enough effect; inconclusive = small, poorly fitted or top-dose-only effect; inactive = no such curve, though single readings can be large or run the other way.
# Experiment: qHTS Assay for Lipid Storage Modulators: S3 Assay against Probe and Analogs
# Conditions: Drosophila S3 cells, BODIPY lipid droplet fluorescence, 18-24 h, oleic acid added to induce droplets; activity, negative = lipid storage inhibition: at 46.1 µM (top of the series)
# Excerpt: Storing lipids as a reservoir for energy or the anabolism of elementary metabolites is a common feature of probably all cells and is conserved from bacteria to humans. The universal cellular lipid storage organelle is the so-called lipid storage droplet (LD). Although ubiquitous, LDs share a simple structure composed of a hydrophobic core that harbors the storage lipids, which is shielded by a droplet-specific phospholipid monolayer to which proteins are attached. The current model of LD biogenesis involves an incorporation of the lipid core into the membrane leaflets of the endoplasmic reticulum (ER) followed by a subsequent budding-like maturation of a LD, which ultimately pinches off. Once released, LD volume can increase by localized lipogenesis or fusion of existing droplets. Storage lipids are re-mobilized enzymatically by lipase activity. Lipase regulation in the adipocyte is heavily studied and involves multiple components including catecholamine signaling, the LD-associated proteins Perilipin and comparative gene identification-58 (CGI-58) and at least two lipases named hormone sensitive lipase (HSL) and adipocyte triglyceride lipase (ATGL). LD regulation outside of the adipocyte is poorly understood and only few components are known. However, there is an urgent need to learn more about ectopic fat depots as mislocalized storage of lipids, for example in the liver or muscle, is an eminent health problem associated with insulin resistance or the metabolic syndrome. We developed a laser-scanning cytometer assay to enable 1,536-well screening and combined the results of the small molecules screen with an RNAi database based on lipid storage. In this assay we tested analogs of the probe against the original qHTS assay, which involved drosophila melanogaster cells (S3), to see if these small molecules could disrupt lipid storage. NIH Molecular Libraries Probe Production Centers Network [MLPCN] NIH Chemical Genomics Center [NCGC] MLPCN Grant: MH085686 Assay Submitter (PI): Mathias Beller, Max-Planck-Institut fur Biophysikalische Chemie
# qHTS was performed with embryonic Drosophila S3 cells (Bloomington Drosophila Genomics Resource Center [DGRC]). We dispensed 4 uL of cells at 1.25 x 10^6 cells/mL into LoBase Aurora COC 1,536-well plates (black walled, clear bottom) with a bottle-valve solenoid-based dispenser (Aurora) to obtain 5,000 cells/well. Triacsin C (Sigma-Aldrich T-4540), an inhibitor of long-chain fatty acyl CoA synthetase that blocks synthesis of triglycerides, was used as a positive control for lipid under-storage. A total of 23 nL of compounds dissolved in DMSO at different concentrations were transferred to the assay plates using a Kalypsys pin tool equipped with a 1,536-pin array containing 10-nL slotted pins (FP1S10, 0.457-mm diameter, 50.8 mm long; V&P Scientific). The final DMSO concentration was 0.46%. One microliter of oleic acid at 400 uM (Calbiochem, #4954) was added to induce lipid droplet formation in the cells, and the plates were lidded with stainless steel rubber gasket lined lids containing pinholes. After 18-24 h incubation at 25 0C and 95% humidity, 4 uL of the BODIPY lipid dye 493/503 (1:2000, Molecular Probes) and the Cell Tracker Red CMTPX dye (Life Technologies, # 34552) were added to the wells to stain lipid droplets and enumerate cell number, respectively. Fluorescence was detected by excitation of the fluorophores with a 488-nm laser on an Acumen Explorer (TTP Lab Tech). The total intensity in channel 1 (500-530 nm) reflected lipid droplet accumulation. Cells were detected using channel 3 (575-640 nm) with 5-um width and 100-um depth filters. The ratio of the total intensity in PMT channel 1 over total intensity of channel 3 was also calculated. Percent activity was computed relative to an internal control (100% inhibited lipid droplet deposition due to the presence of 20 uM Triacsin C), which was added to 32 wells/plate.
Compound,Potency,"activity, negative = lipid storage inhibition"
CCOC(=O)C1CCN(C(=O)C(C)(C)NC(=O)Nc2ccc(Oc3ccccc3)cc2)CC1,"inconclusive: 0.418 µM [inhibitor, full curve, poor fit]",–
O=C(NC1CCCc2c1cnn2-c1ccc(F)cc1F)C1CCCCN1 (centres undefined),"inconclusive: 11.8 µM [inhibitor, single point]",–
C[C@@H](NCCCc1cccc(C(F)(F)F)c1)c1cccc2ccccc12,inactive,–
Cn1c(=O)n(-c2ccc(C(C)(C)C#N)cc2)c2c3cc(-c4cnc5ccccc5c4)ccc3ncc21,active: 1.18 µM,–
CCOc1ccc(CCNC(=O)c2cc3sccc3[nH]2)cc1OCC,inactive,–
CCOC(=O)C1CCN(C(=O)C(C)(C)NC(=O)Nc2ccc(F)c(F)c2)CC1,–,inconclusive: -66.7% [inhibitor]
CCOc1ccc(CCNC(=O)c2cccs2)cc1OCC,inactive,–
O=C(NC1CCCc2c1cnn2-c1ccc(F)cc1F)c1cnccn1 (centres undefined),"inconclusive: 2.35 µM [inhibitor, partial curve, poor fit]",–
O=C(NC1CCCc2c1cnn2-c1ccc(F)cc1F)c1cccc(=O)[nH]1 (centres undefined),"inconclusive: 16.6 µM [inhibitor, partial curve, poor fit]",–
CCOC(=O)C1CCN(C(=O)C(C)(C)NC(=O)Nc2ccccc2Cl)CC1,"inconclusive: 0.372 µM [inhibitor, full curve, poor fit]",–
CCOC(=O)C1CCN(C(=O)C2(NC(=O)Nc3ccccc3Cl)CCC2)CC1,"inconclusive: 1.05 µM [inhibitor, full curve, poor fit]",–
O=C(NC1CCCc2c1cnn2-c1ccc(F)cc1F)c1ccn[nH]1 (centres undefined),"inconclusive: 6.62 µM [inhibitor, full curve, poor fit]",–
O=C(NC1CCCc2c1cnn2-c1ccc(F)cc1F)c1ccc(C(=O)c2ccccc2)cc1 (centres undefined),inactive,–
CCOc1ccc(CCNC(=O)c2cc3ccccc3n2C)cc1OCC,"inconclusive: 4.69 µM [inhibitor, partial curve, poor fit]",–
O=C(NCCc1ccc2c(c1)OCO2)c1cc2sccc2[nH]1,inactive,–
CCOc1ccc(CCNC(=O)c2cccc(C(=O)c3ccccc3)c2)cc1OCC,"inconclusive: 4.18 µM [inhibitor, partial curve, poor fit]",–
CCOc1ccc(C(C)CNC(=O)c2cc3sccc3n2Cc2ccccc2)cc1OCC (centres undefined),"inconclusive: 4.18 µM [inhibitor, full curve, poor fit]",–

Compound,Potency,"activity, negative = lipid storage inhibition"
O=C(NC1CCCc2c1cnn2-c1ccc(F)cc1F)c1ccccc1 (centres undefined),active: 20.9 nM and active: 26.4 nM,–
CCN(CC)C(=O)C1CCN(C(=O)C(C)(C)NC(=O)Nc2ccccc2Cl)CC1,"inconclusive: 6.62 µM [inhibitor, partial curve, poor fit]",–
O=C(N[C@H]1CCCc2c1cnn2-c1ccc(F)cc1F)c1ccccn1,inactive,–
CC(C)Oc1ccc(CCNC(=O)c2cc3sccc3n2Cc2ccccc2)cc1OC(C)C,"inconclusive: 2.35 µM [inhibitor, full curve, poor fit]",–
CCOc1ccc(CCNC(=O)c2cc3sccc3n2Cc2ccncc2)cc1OCC,active: 0.132 µM,–
CCOc1ccc(CCNC(=O)c2cc3sccc3n2C)cc1OCC,"inconclusive: 2.64 µM [inhibitor, full curve, poor fit]",–
CCOc1ccc(CCNC(=O)C2COc3ccccc3O2)cc1OCC (centres undefined),"inconclusive: 11.8 µM [inhibitor, partial curve, poor fit]",–
O=C(O)CCc1ccc(NCc2cccc(Oc3ccccc3)c2)cc1,inactive,–
CC(C)(C)OC(=O)NC1CCCc2c1cnn2-c1ccc(F)cc1F (centres undefined),"inconclusive: 5.26 µM [inhibitor, full curve, poor fit]",–
O=C(CCCCCCC(=O)Nc1ccccc1)NO,"inconclusive: 1.87 µM [inhibitor, partial curve, poor fit]",–
O=C(NCCc1ccc(OCC(F)(F)F)c(OCC(F)(F)F)c1)c1cc2sccc2n1Cc1ccccc1,active: 1.32 µM,–
CCNC(=O)C1CCN(C(=O)C(C)(C)NC(=O)Nc2ccccc2Cl)CC1,"inconclusive: 2.09 µM [inhibitor, full curve, poor fit]",–
CCOc1ccc(CCNC(=O)c2cnon2)cc1OCC,inactive,–
CCOC(=O)C1CCN(C(=O)C(C)(C)NC(=O)Nc2ccc3c(c2)CCC3)CC1,"inconclusive: 0.0235 µM [inhibitor, full curve, poor fit]",–
O=C(NC1CCCc2c1cnn2-c1ccc(F)cc1F)c1ccccn1 (centres undefined),active: 23.5 nM and active: 4.7 nM,–
CCOc1ccc(CCNC(=O)c2cc3sccc3n2Cc2ccc(-n3cncn3)cc2)cc1OCC,"inconclusive: 0.118 µM [inhibitor, full curve, poor fit]",–
CCOc1ccc(CCNC(=O)c2cc3sccc3n2CC=C(C)C)cc1OCC,"inconclusive: 0.132 µM [inhibitor, full curve, poor fit]",–
